{"source": "PubChem BioAssay AID1224830 (NIAID, 2016)", "test": "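Regulators of TLR4 signalling towards TNF-alpha in macrophage-like cells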 (primary screen)", "cells": "human THP-1 monocytic leukaemia cells, TNF dual-luciferase reporter clone, PMA-differentiated to macrophage-like cells", "reagents": "siRNA pool against human genes, 50 nM", "time to read-out": "LPS for 4 h, given about 3 days after siRNA transfection", "conditions": "bacterial LPS (TLR4 ligand), 10 ng/ml", "measured": "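Ratio of firefly to renilla light, scaled to the plate median and expressed as a robust z-score per replicate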", "reading the numbers": "TNF reporter robust z-score: higher = stronger TNF reporter response to LPS", "call rule": "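Each well counts as active if its z-score is over 2.8 or under -1.5; controls are left without a call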", "note": "The deposit covers about 18,000 reagents; shown is a part drawn at random. About 2,900 of all reagents (16%) count as active. 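Calls are made per well; low scores hint the gene aids the LPS response, high scores that it dampens it.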 Repeated entries: four replicate wells of each siRNA pool. Reagent sequences are not shown."}
{"target": "SCGB3A1 (secretoglobin family 3A member 1)", "TNF reporter robust z-score": 0.28, "activity call": "inactive"}
{"target": "SCGB3A1 (secretoglobin family 3A member 1)", "TNF reporter robust z-score": -0.05, "activity call": "inactive"}
{"target": "SCGB3A1 (secretoglobin family 3A member 1)", "TNF reporter robust z-score": 0.06, "activity call": "inactive"}
{"target": "SCGB3A1 (secretoglobin family 3A member 1)", "TNF reporter robust z-score": -0.28, "activity call": "inactive"}
{"target": "MXD4 (MAX dimerization protein 4)", "TNF reporter robust z-score": -0.45, "activity call": "inactive"}
{"target": "MXD4 (MAX dimerization protein 4)", "TNF reporter robust z-score": 0.64, "activity call": "inactive"}
{"target": "MXD4 (MAX dimerization protein 4)", "TNF reporter robust z-score": -0.69, "activity call": "inactive"}
{"target": "MXD4 (MAX dimerization protein 4)", "TNF reporter robust z-score": -0.97, "activity call": "inactive"}
{"target": "TSPYL6 (TSPY like 6)", "TNF reporter robust z-score": 2.58, "activity call": "inactive"}
{"target": "TSPYL6 (TSPY like 6)", "TNF reporter robust z-score": 1.29, "activity call": "inactive"}
{"target": "TSPYL6 (TSPY like 6)", "TNF reporter robust z-score": 0.58, "activity call": "inactive"}
{"target": "TSPYL6 (TSPY like 6)", "TNF reporter robust z-score": -1.45, "activity call": "inactive"}
{"target": "FANCA (FA complementation group A)", "TNF reporter robust z-score": -0.99, "activity call": "inactive"}
{"target": "FANCA (FA complementation group A)", "TNF reporter robust z-score": -0.34, "activity call": "inactive"}
{"target": "FANCA (FA complementation group A)", "TNF reporter robust z-score": -0.29, "activity call": "inactive"}
{"target": "FANCA (FA complementation group A)", "TNF reporter robust z-score": 0.12, "activity call": "inactive"}
{"target": "CRYM (crystallin mu)", "TNF reporter robust z-score": 0.26, "activity call": "inactive"}
{"target": "CRYM (crystallin mu)", "TNF reporter robust z-score": 0.34, "activity call": "inactive"}
{"target": "CRYM (crystallin mu)", "TNF reporter robust z-score": -0.26, "activity call": "inactive"}
{"target": "CRYM (crystallin mu)", "TNF reporter robust z-score": 1.17, "activity call": "inactive"}
{"target": "MYPN (myopalladin)", "TNF reporter robust z-score": -1.12, "activity call": "inactive"}
{"target": "MYPN (myopalladin)", "TNF reporter robust z-score": -0.67, "activity call": "inactive"}
{"target": "MYPN (myopalladin)", "TNF reporter robust z-score": -0.99, "activity call": "inactive"}
{"target": "MYPN (myopalladin)", "TNF reporter robust z-score": -0.77, "activity call": "inactive"}
{"target": "WDR5B (WD repeat domain 5B)", "TNF reporter robust z-score": -1.81, "activity call": "active"}
{"target": "WDR5B (WD repeat domain 5B)", "TNF reporter robust z-score": -1.17, "activity call": "inactive"}
{"target": "WDR5B (WD repeat domain 5B)", "TNF reporter robust z-score": -1.45, "activity call": "inactive"}
{"target": "WDR5B (WD repeat domain 5B)", "TNF reporter robust z-score": -1.47, "activity call": "inactive"}
{"target": "NDUFS4 (NADH:ubiquinone oxidoreductase subunit S4)", "TNF reporter robust z-score": -1.11, "activity call": "inactive"}
{"target": "NDUFS4 (NADH:ubiquinone oxidoreductase subunit S4)", "TNF reporter robust z-score": -0.94, "activity call": "inactive"}
{"target": "NDUFS4 (NADH:ubiquinone oxidoreductase subunit S4)", "TNF reporter robust z-score": -1.58, "activity call": "active"}
{"target": "NDUFS4 (NADH:ubiquinone oxidoreductase subunit S4)", "TNF reporter robust z-score": -1.64, "activity call": "active"}
